Reference: US20060074048A1, “Mixed esters of hyaluronic acid with retinoic and butyric acids” (priority 2002, published 2006)
For at least one compound, name, drawing or mass did not settle the structure.

Test system: promyelo/monocytic cell line U937
Test: MTT cell proliferation, U937
Type: cell-based, human
Conditions: U937, 3 days; BA 0.2 mM, RA 10^−5 M
Experimental: MCF7, U937, HL-60 and HT29 cell lines were purchased from the American […] Culture Collection (Rockville, […].). MCF7 cells were grown in DMEM/F12 supplemented with 5% FBS, while U937 and HL-60 were grown in RPMI-1640 supplemented with 10% (v/v) foetal bovine serum.
Approximately 1000 cells (MCF7 and HT29) and 500 cells (U937 and HL-60) per well were used in 96-well plates and were treated as indicated in the examples. At the end of the experiment, the anti-proliferative effect was measured with 3-(4,5-dimethylthiazol-2-yl)-2,5-diphenyltetrazolium bromide (MTT). The blank value, corresponding to wells containing all the components but cells, was subtracted from the absorbance values obtained.

## CC1=C(/C=C/C(C)=C/C=C/C(C)=C/C(=O)O)C(C)(C)CCC1 [retinoic acid, Retinoic acid]
  anti-proliferative effect and cell cycle block: significantly reduces cell growth
